Results as given in publication PMC5382582.
No constants are given. Whether binding was seen depends on the method and setting. Binding seen in cells or lysates may run through a third protein. Some binding calls cover weakened binding; strength is not graded here.

Amino acid sequences for entries named in this document (tags omitted). Residues count along the entry.
UniProt O14957: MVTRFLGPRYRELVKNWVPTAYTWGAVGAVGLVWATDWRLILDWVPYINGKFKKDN
UniProt P10176, residues 26-69: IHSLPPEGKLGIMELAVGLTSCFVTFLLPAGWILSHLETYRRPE

Target: CIIIk-Clover (UniProt O14957)
Assay: FRET or BRET; FLIM-FRET in live cells transiently transfected with the donor alone (CIIIk-Clover) or with donor and acceptor (CoxVIIIa-mRuby2); Clover lifetime from bi-exponential fits of TCSPC decays; 37 °C, 5% CO2

## CoxVIIIa-mRuby2 (from UniProt P10176 26-69)
  binding: binds
